According to PubChem BioAssay AID1508600 (Functional Genomics Laboratory (NCATS/FGL), 2020):
The campaign covered roughly 53,000 sequences. About 3,700 (7%) were called active.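 Rule for the calls: active = gene knockdowns whose robust z-score for IL-1 alpha signal is at least 2 or at most -2, so actives lie on both sides; inactive = the rest.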 The list shows a part of the results.

Experiment: Components of the Cytosolic LPS Sensing Pathway: Gene Identification via Genome-wide siRNA Screen;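 note: robust z of the log signal after scaling to non-targeting control siRNA wells of the plate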
Conditions: RAW264.7 macrophages, IL-1a HTRF, actives lie on both sides, screened at 100 nM (by protocol), cells primed 5 h with Pam3CSK4 first
In short: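 Read-out: IL-1a HTRF on supernatant, divided by plate negative-control median ×100, log-transformed and converted to robust z-score. Cells were RAW264.7 given 100 nM siRNA, Pam3CSK4-primed 5 hours, then LipidA-transfected 24 hour.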

| Sequence | z-score |
| --- | --- |
| GGCACUCAGCAAGAUUGUATT against Nr2c2ap | inactive: -0.28 |
| CGACAUAGCAAUCACAUGATT against Lmo2 | inactive: -0.125 |
| GGCCAAUCCACGAAAGCAUTT against Strip1 | inactive: -0.958 |
| GGAAGAACAGGAAGAAGUGTT against Pank1 | inactive: 1.02 |
| GGUUGAAGUCUAUUCUCGATT against Trap1 | inactive: -0.139 |
| GGGAAAAUGGCUUAACCGUTT against Siglecg | inactive: 0.703 |
| CGCAAACCUACAGCUCUGATT against Rhox10 | inactive: -0.909 |
| GGAGGAUCUUAAGAAGUUCTT against Chchd6 | inactive: 0.689 |
| GCACCUGAUUAAGUUGCAUTT against Med15 | active: -2.11 |
| GGCAAUAACAUUCGGUAUUTT against Snrpd1 | active: -2.29 |
| GGUCGAACGAUUCUGCUGUTT against Slfn5 | inactive: 0.207 |
| GCCAUAUAUCUGCUAUCAUTT against Clvs2 | active: 2.34 |
| GGCCAAGUUCUACAAUGACTT against Ptp4a3 | inactive: 0.222 |
| GGCAAGAAAGGACCAAUGGTT against Cln8 | inactive: 0.206 |
| GGAUGCUGAUUGAAUUCUATT against Slc16a9 | inactive: -0.579 |
| GGAAAAGAUCAGAGAAUACTT against Hnrnpab | inactive: 0.504 |
| GGAUAUUUCCAGACAAUAUTT against Podnl1 | inactive: -1.42 |
| GGAUGCUAAAAAACCAAUGTT against Ndufs1 | inactive: 0.701 |
| GGAGUUGAAACUGAAUACATT against Pramel7 | inactive: -0.329 |
| GCUCUCACAGUUGCAUUCGTT against Lrrc58 | inactive: 0.624 |
| GCUGCUCAAGAUCAUUUGATT against Fam135b | inactive: 0.638 |
| GGACCUCUUCAAUUGGACATT against Fut4 | inactive: -0.435 |

| Sequence | z-score |
| --- | --- |
| GGAGACUGCUAUAUUGGCUTT against 1700092C17Rik | inactive: -0.147 |
| CCUCUACAAUGUAACCAACTT against Kir3dl2 | inactive: -0.183 |
| CGAGUUUGGACAUACCUUUTT against Atg13 | inactive: 1.24 |
| GCUAACCAUGUGACAAUAATT against Timm8a1 | inactive: -1.39 |
| GGCAACUUGUUCCAGCAAUTT against Aifm1 | inactive: -0.755 |
| GCUAACUGAAAGGUUCUUCTT against Eif3l | inactive: 0.126 |
| CCAUCAAAGAAACAGAUUGTT against Fibin | inactive: -0.513 |
| CGAUGUUAUCAGUUUCAUATT against Sema3d | inactive: 0.758 |
| GGAGCUUAUCAACUACUAUTT against Cltc | inactive: -0.181 |
| GCAUGGAGUCUGGUAUCUGTT against Olfr504 | inactive: -1.33 |
| GGAGCCAAGAGUGAAGAACTT against Tbp | inactive: -0.183 |
| CCAAAGUGGUUUUCAUCCUTT against Hps3 | inactive: 0.434 |
| GGAUCUCCAAGUUAAAGAATT against Pigo | inactive: -0.562 |
| GGCCUUCCUUCCCUUAGAGTT against Tmem222 | inactive: 0.191 |
| GGAAAGACUUGCAUUUUCUTT against 1700010I14Rik | inactive: 1.61 |
| GGGCAGAACUGCAUGAGAATT against Acp1 | inactive: -0.176 |
| GAUGCGGCUCCUUGGAAUUTT against Slc51b | active: 2.38 |
| GGAAGGGUCACUACAGGCATT against Rnf31 | inactive: 0.595 |
| GGCUGUGCUCCUUGUUAGUTT against Olfr1143 | inactive: -0.083 |
| GGAACAUUUACAACAUCCATT against Itgb2 | inactive: -0.614 |
| GGCAUUUCUUGUGUUACGUTT against Prxl2c | inactive: -0.632 |
| GGCUAAGAAACUGAAGAGATT against Ccm2l | inactive: -1.59 |

A section taken from the entries so far, as a working copy:

| Sequence | z-score |
| --- | --- |
| CCAAAGUGGUUUUCAUCCUTT against Hps3 | inactive: 0.434 |
| GGAUCUCCAAGUUAAAGAATT against Pigo | inactive: -0.562 |
| GGCCUUCCUUCCCUUAGAGTT against Tmem222 | inactive: 0.191 |
| GGAAAGACUUGCAUUUUCUTT against 1700010I14Rik | inactive: 1.61 |
| GGGCAGAACUGCAUGAGAATT against Acp1 | inactive: -0.176 |
| GAUGCGGCUCCUUGGAAUUTT against Slc51b | active: 2.38 |
| GGAAGGGUCACUACAGGCATT against Rnf31 | inactive: 0.595 |

Further results follow.

| Sequence | z-score |
| --- | --- |
| GCGAUCCUCUCUACUUAACTT against Eno4 | inactive: -1.49 |
| GGAUUUAACCUCUCCAACUTT against Olfr1030 | inactive: -0.043 |
| GGCAAGCUUGAAUAAUGAATT against Fam104a | inactive: -0.33 |
| GGGCUUUUUUCUUAAUGCCTT against Pramel3 | inactive: -1.13 |
| GGUGAAACGGGACAUGCAATT against Mfsd1 | inactive: -1.3 |
| GCUGGAGGUAUUCAACAUGTT against Gorasp1 | inactive: 0.59 |
| CGGUUACUUUUGAAGCUUGTT against Ogfod1 | inactive: 1.49 |
| GGCUGGAGAUCUCUCAAAGTT against Nkain2 | inactive: 1.64 |
| GGUCUUCAAAAUCAUCCCUTT against Ces2e | inactive: 0.221 |
| GCUACUGUGUCGGUCACAUTT against Olfr514 | inactive: 0.753 |
| GGAAAAUGUCACUUUAUGGTT against Fcgr1 | inactive: 0.556 |
| GCACCUCUAUGAGAGGACATT against Anxa8 | inactive: 0.678 |
| GCUUAAAAUUCGGUAAGGATT against Il17ra | inactive: 0.366 |
| GGCAAAUUCGAAAUAGACATT against Evx2 | inactive: 0.227 |
| CCUCCAAGAUCACUGAACATT against 2410018L13Rik | inactive: -0.536 |
| CCCUCUGGCUAAUAAAUGATT against Spaca6 | inactive: 1.75 |
| GGAUGUUCUGUUCUUGAAGTT against Pgk1 | inactive: 1.36 |
| GGCUUCUUCCUUGAGAGUCTT against Tgfa | inactive: 0.162 |
| GGAUAAAGGCCUGAGCGAUTT against Wwc2 | inactive: -0.575 |
| CGCAUUUGAAAAAGAGUGGTT against Ndufs5 | inactive: -1.31 |
| CCUUUGGAAACAACCACUUTT against Ugt1a6a | inactive: 0.604 |
| GGUUAUUGGGAUUGAGUGUTT against Prmt1 | inactive: 0.125 |

| Sequence | z-score |
| --- | --- |
| CCAUGAGUGACCAAACAGGTT against Snx22 | inactive: -0.509 |
| GCGCAUUGUGCAGGAUAAATT against Tnpo2 | inactive: -1.22 |
| CCUCUACAACCUAAUUUAUTT against Abcd1 | inactive: 0.927 |
| GGACAAUAGAUCGUCACUUTT against Wdpcp | inactive: -0.975 |
| GGACCAUCCUACAUCGGUCTT against Fpgs | inactive: 1.02 |
| GGAAGUCGCUUGGAGUUCUTT against Sh2b1 | inactive: 0.044 |
| GGGUGCUUGCCAUUAACCCTT against Galnt14 | inactive: 0.767 |
| GGAGAGGGAUAAGUUCUACTT against Unc79 | inactive: 0.451 |
| GGAAGCACAUAGAAGCCAATT against Defb11 | inactive: -0.504 |
| GGUAUGCAUGAACAUAAUGTT against Prl7c1 | inactive: 0.788 |
| CCGCUUUAAGGCACAUCCATT against Ubqln3 | inactive: 0.565 |
| GGUCUUUUUGAAUAGAGUATT against Glb1l2 | inactive: 0.406 |
| GGGAGAGAGAAAAAGAAAATT against Park7 | inactive: 0.94 |
| CCAGCAUGCGUGAUGUCUATT against Gdi1 | inactive: -1.71 |
| CUUCCUGAGGAGAAUGUAUTT against Krt86 | inactive: -1.92 |
| CCCAAAACGGUAGCUUAAGTT against Rcc1 | inactive: -0.0143 |
| CCAGUAUUUGAGAAUUCUGTT against Gm4788 | inactive: -0.763 |
| GGCACACAAACAAUUGGUATT against Rrp36 | inactive: -0.318 |
| CAAACCCAUGUUCUAAAUGTT against Oog3 | inactive: 0.141 |
| GCUACAAUGUAGGUCUCAGTT against Rsbn1 | inactive: 1.15 |
| GGAAGAAAACGCAACUAUATT against Atp1b3 | inactive: 0.246 |
| GCCUAUUUGACGUGCAGAGTT against Crocc | inactive: -0.0336 |

| Sequence | z-score |
| --- | --- |
| GGACAAACAUGGAAGCGUGTT against Itga2b | inactive: -0.728 |
| GGCACUAAAAGAAGAGAUCTT against Bola3 | inactive: -0.0508 |
| GCACAUACUACCUAGAAGGTT against Hoxb6 | inactive: 0.282 |
| CCGUCUUCGUUUGCCCUUGTT against Hopx | inactive: 1.69 |
| GCGAAUGAUAUGUAUCAGATT against Pik3r1 | inactive: 0.647 |
| GGAUAUACAAGUUACAGAATT against Icam1 | inactive: 0.661 |
| GGCAAAUGGUCUUUAUGCATT against Zfp606 | inactive: -0.211 |
| GCAUCUUAACAAUAACUACTT against Fhl4 | inactive: -0.392 |
| GGAUCAGUUGCUCCUAAACTT against Krtap6-2 | inactive: -0.522 |
| ACUAGAUUUAUCCUGCACATT against Platr28 | inactive: -1.26 |
| CGUGGGACCUGGUAUGUAATT against Slc22a12 | active: 2.79 |
| GCUGUCAGAAAUCUUCGACTT against E2f4 | active: 2.65 |
| CGCGAACUUACCAAAAUGUTT against Endog | inactive: 0.768 |
| GGAAGUGGUGAAGAAACAUTT against Hsp90ab1 | inactive: -1.72 |
| GGUGGAGUACUUGUGUGACTT against Suv39h2 | inactive: -0.16 |
| GCAUGUGACUCCAUAUAAATT against Cldn15 | inactive: -0.117 |
| GCCGUUUCGUGUGGUAUUUTT against Tm4sf1 | active: -2.64 |
| GGCUUUCAUUCUUGGAAAATT against 9530009G21Rik | inactive: -0.362 |
